Experimental data as given in the supplement of paper PMC6078165.

System: MDAMB231
Experiment: relative JC-1 red fluorescence (viability) vs pre-drug, coculture with fibroblast (fraction); higher = more viable cancer cells
Procedure: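 JC-1 labelled TNBC cells cocultured 1:1 (1,500 cells each) with CellTrace Violet stained primary or stromal fibroblasts in 384-well plates in FluoroBrite medium, treated with one of 42 anticancer drugs at 0.1, 1, 10 or 100 uM. JC-1 red fluorescence (mitochondrial integrity in cancer cells only) was read by plate reader every 8 h for 72 h. Values are normalised to each well's pre-drug value. The stock of one drug was tenfold lower, so its dose labels may be too high.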

O=C(CCCCCCC(=O)Nc1ccccc1)NO [Vorinostat]
relative JC-1 red fluorescence
Conditions	8 h	16 h	24 h	32 h	40 h	48 h	56 h	64 h	72 h
0.1 µM, coculture fibroblast: C12385	0.76907	0.7115	0.624	0.607	0.55	0.526	0.487	0.483	0.467
0.1 µM, coculture fibroblast: H6013	0.951	0.907	0.886	0.794	0.85	0.814	0.811	0.787	0.761
0.1 µM, coculture fibroblast: H6019	0.734	0.6825	0.586	0.571	0.5193	0.487	0.434	0.406	0.3746
0.1 µM, coculture fibroblast: H6076	0.854	0.767	0.703	0.666	0.634	0.6	0.574	0.557	0.543
0.1 µM, coculture fibroblast: H6231	0.909	0.8	0.723	0.665	0.612	0.571	0.528	0.50972	0.487
0.1 µM, coculture fibroblast: HADF	0.867	0.808	0.758	0.723	0.674	0.622	0.6119	0.5884	0.542
0.1 µM, coculture fibroblast: HCFa	0.858	0.803	0.754	0.711	0.664	0.606	0.588	0.553	0.504
0.1 µM, coculture fibroblast: HCPF	0.951	0.842	0.761	0.723	0.668	0.624	0.579	0.536	0.511
0.1 µM, coculture fibroblast: HHSteC	0.8815	0.846	0.793	0.732	0.68596	0.6457	0.606	0.58085	0.5426
0.1 µM, coculture fibroblast: HMF	0.855	0.751	0.686	0.6411	0.593	0.551	0.513	0.495	0.476
0.1 µM, coculture fibroblast: HPFa	0.9439	0.8948	0.838	0.788	0.758	0.715	0.664	0.641	0.589
0.1 µM, coculture fibroblast: HUF	0.841	0.681	0.694	0.58	0.516	0.506	0.459	0.45	0.436
0.1 µM, coculture fibroblast: Hs5	0.853	0.781	0.717	0.669	0.614	0.565	0.521	0.486	0.45179
0.1 µM, coculture fibroblast: Hs27A	0.8714	0.8103	0.7687	0.747	0.689	0.626	0.626	0.599	0.554
0.1 µM, coculture fibroblast: Hs343T	0.8694	0.751	0.6698	0.626	0.564	0.509	0.452	0.428	0.401
0.1 µM, coculture fibroblast: WS1	0.725	0.68	0.591	0.548	0.501	0.472	0.427	0.415	0.387
1 µM, coculture fibroblast: C12385	0.742	0.717	0.634	0.627	0.585	0.5724	0.545	0.5439	0.533
1 µM, coculture fibroblast: H6013	0.8782	0.8189	0.761	0.7368	0.705	0.698	0.695	0.679	0.659
1 µM, coculture fibroblast: H6019	0.733	0.656	0.603	0.57	0.539	0.538	0.498	0.505	0.486
1 µM, coculture fibroblast: H6076	0.935	0.87	0.797	0.789	0.771	0.752	0.75	0.76	0.77
1 µM, coculture fibroblast: H6231	0.8969	0.8143	0.76	0.736	0.686	0.66	0.627	0.612	0.596
1 µM, coculture fibroblast: HADF	0.89	0.854	0.846	0.848	0.838	0.817	0.706	0.752	0.762
1 µM, coculture fibroblast: HCFa	0.8697	0.79562	0.771	0.7337	0.6918	0.653	0.632	0.6067	0.586
1 µM, coculture fibroblast: HCPF	0.905	0.798	0.721	0.695	0.641	0.603	0.572	0.544	0.5218
1 µM, coculture fibroblast: HHSteC	0.8707	0.812	0.769	0.745	0.712	0.699	0.666	0.654	0.624
1 µM, coculture fibroblast: HMF	0.9	0.742	0.7306	0.839	0.817	0.792	0.77	0.757	0.751
1 µM, coculture fibroblast: HPFa	0.919	0.886	0.8065	0.7547	0.725	0.696	0.658	0.64082	0.6092
1 µM, coculture fibroblast: HUF	0.8348	0.732	0.73025	0.6435	0.595	0.591	0.549	0.548	0.526
1 µM, coculture fibroblast: Hs5	0.876	0.795	0.731	0.699	0.672	0.638	0.606	0.59	0.569
1 µM, coculture fibroblast: Hs27A	0.865	0.7983	0.7567	0.74666	0.7044	0.63	0.6531	0.6397	0.6077
1 µM, coculture fibroblast: Hs343T	0.902	0.808	0.71	0.686	0.646	0.611	0.574	0.565	0.551
1 µM, coculture fibroblast: WS1	0.749	0.708	0.606	0.582	0.559	0.545	0.513	0.51	0.492

The reference is the same well before dosing, and untreated signal decays as well.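 Fibroblast labels name human fibroblasts: mostly primary ones from tissues such as uterus (C12385, HUF), lung (H6013), bone (Hs27A), adrenal (HADF) and skin (WS1), plus mammary HMF and breast cancer-associated Hs343T. The cancer cells are basal-like or mesenchymal-like triple-negative breast cancer lines. The paper calls a changed response a hit when it shifts by more than 3x the replicate standard deviation. The tissue of the other fibroblasts is not given here.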
